Experimental data taken from publication PMC9120069.
These are yes or no findings as the source states them, for the method shown. In cells and extracts the contact can be indirect. A yes stands for co-enrichment or nearness to the bait. Other partners may have been found.

By UniProt entry, the sequences of proteins in these tests, tags left out. Residues count along the entry.
UniProt Q8NE86, residues 51-351: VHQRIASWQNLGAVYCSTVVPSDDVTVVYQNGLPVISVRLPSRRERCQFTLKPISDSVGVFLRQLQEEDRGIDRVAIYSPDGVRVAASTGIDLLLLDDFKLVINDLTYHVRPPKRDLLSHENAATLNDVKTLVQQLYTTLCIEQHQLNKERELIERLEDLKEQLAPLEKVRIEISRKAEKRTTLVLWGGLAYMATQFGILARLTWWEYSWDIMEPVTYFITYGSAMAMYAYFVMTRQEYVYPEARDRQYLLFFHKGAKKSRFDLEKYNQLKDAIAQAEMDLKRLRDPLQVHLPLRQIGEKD
UniProt Q9P0J0: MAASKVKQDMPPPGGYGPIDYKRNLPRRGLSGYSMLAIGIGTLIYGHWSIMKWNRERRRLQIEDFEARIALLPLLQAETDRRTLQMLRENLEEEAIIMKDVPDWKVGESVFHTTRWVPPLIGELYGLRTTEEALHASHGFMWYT
UniProt P51970: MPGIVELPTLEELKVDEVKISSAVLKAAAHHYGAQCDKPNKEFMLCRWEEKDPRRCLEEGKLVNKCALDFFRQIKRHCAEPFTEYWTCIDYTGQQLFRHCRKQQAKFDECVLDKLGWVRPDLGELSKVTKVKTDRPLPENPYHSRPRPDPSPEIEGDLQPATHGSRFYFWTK
UniProt O95167: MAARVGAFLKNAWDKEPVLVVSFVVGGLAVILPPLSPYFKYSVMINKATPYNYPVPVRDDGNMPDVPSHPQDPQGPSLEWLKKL

Biological target: Flag-tagged MCU (pore-forming subunit of the mitochondrial calcium uniporter) (UniProt Q8NE86)
Assay: affinity purification with mass spectrometry; FLAG antibody beads on cleared lysates of HEK293T cells stably expressing MCU-Flag; 1% digitonin, 50 mM Tris, 150 mM NaCl; overnight at 4 °C; eluted in 2% SDS; six MCU-Flag samples and four non-transduced control samples

| binding | Substance |
| --- | --- |
| binds | NDUFA13 (from UniProt Q9P0J0 1-144) |
| binds | NDUFA8 (from UniProt P51970 1-172) |
| binds | NDUFA3 (from UniProt O95167 1-84) |
